The list shows a part of the results.
What was measured:
Assay in all cases: log2 fold change, soluble protein after heating vs DMSO (PISA); higher = thermal stabilisation; K562 lysate, 10 uM; active = over 0.2 and 3.5 SD of the protein, either way, in both replicates (recomputed)
lapatinib = compound: CS(=O)(=O)CCNCc1ccc(-c2ccc3ncnc(Nc4ccc(OCc5cccc(F)c5)c(Cl)c4)c3c2)o1 [lapatinib]
Outline: (§1)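 Soluble protein was defined as the supernatant remaining after 21,000xg for 90 min, following pooling of heated aliquots and adjustment to 0.5% NP-40 at 4°C. Before that, crude K562 extract at 1 mg/mL protein in PBS pH 7.4 with 1 mM MgCl2 was treated with 10 μM compound for 30 min and heated for 3 min across 48°C-58°C. Quantification used TMTpro 16plex LC-MS/MS with channel sums equalised, and values are log-two fold changes in thermal stability relative to solvent controls from duplicates.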

Sequences of proteins named here, by UniProt entry; tags and fusion partners are left off. A change or cut given only in a name is not applied to a line headed by its entry.
UniProt Q9NZB2: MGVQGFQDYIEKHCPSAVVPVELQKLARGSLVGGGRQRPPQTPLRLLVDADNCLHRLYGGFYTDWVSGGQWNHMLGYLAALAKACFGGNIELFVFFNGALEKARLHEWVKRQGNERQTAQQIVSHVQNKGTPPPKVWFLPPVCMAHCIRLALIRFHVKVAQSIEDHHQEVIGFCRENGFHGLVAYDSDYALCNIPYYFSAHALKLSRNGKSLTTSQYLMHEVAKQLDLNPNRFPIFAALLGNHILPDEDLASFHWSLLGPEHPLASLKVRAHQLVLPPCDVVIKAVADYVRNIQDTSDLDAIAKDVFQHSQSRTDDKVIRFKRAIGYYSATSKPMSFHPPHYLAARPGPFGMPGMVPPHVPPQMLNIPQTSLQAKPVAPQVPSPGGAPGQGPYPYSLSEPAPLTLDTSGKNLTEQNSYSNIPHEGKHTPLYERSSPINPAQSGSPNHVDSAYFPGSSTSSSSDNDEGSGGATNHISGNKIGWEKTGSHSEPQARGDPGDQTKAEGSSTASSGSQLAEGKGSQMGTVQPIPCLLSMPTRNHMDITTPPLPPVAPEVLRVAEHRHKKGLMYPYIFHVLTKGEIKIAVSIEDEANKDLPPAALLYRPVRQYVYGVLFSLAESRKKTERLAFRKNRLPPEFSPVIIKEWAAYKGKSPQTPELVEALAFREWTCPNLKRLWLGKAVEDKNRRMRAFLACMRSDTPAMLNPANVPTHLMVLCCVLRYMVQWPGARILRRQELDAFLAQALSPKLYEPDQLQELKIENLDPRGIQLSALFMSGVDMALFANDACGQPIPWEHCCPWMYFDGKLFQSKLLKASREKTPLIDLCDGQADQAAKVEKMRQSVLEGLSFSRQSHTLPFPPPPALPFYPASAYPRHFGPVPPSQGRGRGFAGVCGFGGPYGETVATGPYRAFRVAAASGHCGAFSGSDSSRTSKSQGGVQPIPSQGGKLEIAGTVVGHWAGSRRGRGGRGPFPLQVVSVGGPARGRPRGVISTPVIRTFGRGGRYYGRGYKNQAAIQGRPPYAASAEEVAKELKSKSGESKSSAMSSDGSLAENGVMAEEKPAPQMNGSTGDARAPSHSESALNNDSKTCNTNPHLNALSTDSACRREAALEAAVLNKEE
UniProt P98173: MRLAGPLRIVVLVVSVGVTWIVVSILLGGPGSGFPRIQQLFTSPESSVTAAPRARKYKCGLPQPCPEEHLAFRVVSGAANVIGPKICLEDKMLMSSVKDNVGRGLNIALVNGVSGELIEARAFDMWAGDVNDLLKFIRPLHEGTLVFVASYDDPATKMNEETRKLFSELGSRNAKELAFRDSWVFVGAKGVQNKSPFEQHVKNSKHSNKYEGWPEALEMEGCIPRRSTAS
UniProt Q9Y5Q0: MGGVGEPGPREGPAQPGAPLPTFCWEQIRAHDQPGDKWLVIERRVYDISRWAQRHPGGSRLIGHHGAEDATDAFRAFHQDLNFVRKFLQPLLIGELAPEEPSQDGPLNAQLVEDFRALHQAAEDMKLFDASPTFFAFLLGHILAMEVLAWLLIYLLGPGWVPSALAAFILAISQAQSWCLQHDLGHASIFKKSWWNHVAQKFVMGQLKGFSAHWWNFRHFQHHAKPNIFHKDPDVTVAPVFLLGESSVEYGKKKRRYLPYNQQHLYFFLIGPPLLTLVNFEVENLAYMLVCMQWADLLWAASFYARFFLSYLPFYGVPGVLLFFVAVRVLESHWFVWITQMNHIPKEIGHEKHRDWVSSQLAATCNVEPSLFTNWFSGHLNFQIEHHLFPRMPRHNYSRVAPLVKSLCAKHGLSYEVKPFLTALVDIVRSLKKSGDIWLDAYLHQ
UniProt P15311, whole entry, looked up: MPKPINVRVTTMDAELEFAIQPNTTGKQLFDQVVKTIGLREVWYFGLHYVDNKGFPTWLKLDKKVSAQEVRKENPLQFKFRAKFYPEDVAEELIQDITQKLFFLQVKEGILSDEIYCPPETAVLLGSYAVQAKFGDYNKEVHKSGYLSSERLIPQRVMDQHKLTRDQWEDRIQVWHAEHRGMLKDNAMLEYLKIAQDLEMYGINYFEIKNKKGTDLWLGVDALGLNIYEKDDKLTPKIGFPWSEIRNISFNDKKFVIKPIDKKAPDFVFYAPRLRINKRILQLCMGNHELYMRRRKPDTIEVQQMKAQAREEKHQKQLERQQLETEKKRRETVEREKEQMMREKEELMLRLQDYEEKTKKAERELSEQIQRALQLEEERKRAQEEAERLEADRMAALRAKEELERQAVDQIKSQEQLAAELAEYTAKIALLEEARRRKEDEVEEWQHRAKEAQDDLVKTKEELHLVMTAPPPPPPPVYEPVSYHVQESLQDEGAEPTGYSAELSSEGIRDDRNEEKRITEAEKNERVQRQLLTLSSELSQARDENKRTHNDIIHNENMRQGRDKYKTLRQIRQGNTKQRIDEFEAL
UniProt Q96ND0: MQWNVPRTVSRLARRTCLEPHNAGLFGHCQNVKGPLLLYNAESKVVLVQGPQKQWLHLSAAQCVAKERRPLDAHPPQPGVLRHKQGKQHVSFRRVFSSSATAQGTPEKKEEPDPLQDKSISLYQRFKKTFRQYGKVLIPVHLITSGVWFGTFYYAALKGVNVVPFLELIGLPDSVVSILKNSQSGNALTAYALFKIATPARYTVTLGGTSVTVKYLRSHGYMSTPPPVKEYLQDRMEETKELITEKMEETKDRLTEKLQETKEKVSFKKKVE
UniProt Q9NPD3, whole entry, looked up: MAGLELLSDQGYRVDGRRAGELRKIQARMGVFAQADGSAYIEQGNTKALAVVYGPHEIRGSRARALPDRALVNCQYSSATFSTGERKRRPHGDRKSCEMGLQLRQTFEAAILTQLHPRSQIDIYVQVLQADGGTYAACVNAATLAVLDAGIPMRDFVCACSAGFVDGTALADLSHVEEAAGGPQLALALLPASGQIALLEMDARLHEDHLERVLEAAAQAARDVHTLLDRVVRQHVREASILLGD
UniProt Q5W0V3: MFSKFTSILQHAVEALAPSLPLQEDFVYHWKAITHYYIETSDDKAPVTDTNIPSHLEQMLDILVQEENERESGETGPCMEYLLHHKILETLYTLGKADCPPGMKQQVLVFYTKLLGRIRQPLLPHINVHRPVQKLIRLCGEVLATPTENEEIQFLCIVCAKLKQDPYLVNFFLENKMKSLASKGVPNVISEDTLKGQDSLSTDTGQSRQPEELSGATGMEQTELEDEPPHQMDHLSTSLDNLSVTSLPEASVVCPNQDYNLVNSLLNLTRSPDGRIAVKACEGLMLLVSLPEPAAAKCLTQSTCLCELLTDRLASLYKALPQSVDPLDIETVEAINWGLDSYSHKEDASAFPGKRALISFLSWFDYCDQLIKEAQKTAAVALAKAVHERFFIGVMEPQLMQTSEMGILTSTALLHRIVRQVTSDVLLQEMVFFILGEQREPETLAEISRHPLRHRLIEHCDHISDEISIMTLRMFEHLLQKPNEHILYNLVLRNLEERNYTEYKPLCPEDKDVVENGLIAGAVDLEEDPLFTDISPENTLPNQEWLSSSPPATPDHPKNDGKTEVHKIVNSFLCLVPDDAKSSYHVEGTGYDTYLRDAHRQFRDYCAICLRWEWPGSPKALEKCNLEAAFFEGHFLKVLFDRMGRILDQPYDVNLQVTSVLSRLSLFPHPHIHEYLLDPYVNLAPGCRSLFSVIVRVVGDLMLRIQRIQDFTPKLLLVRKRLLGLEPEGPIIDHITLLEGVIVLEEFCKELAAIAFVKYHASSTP
UniProt Q96HE7: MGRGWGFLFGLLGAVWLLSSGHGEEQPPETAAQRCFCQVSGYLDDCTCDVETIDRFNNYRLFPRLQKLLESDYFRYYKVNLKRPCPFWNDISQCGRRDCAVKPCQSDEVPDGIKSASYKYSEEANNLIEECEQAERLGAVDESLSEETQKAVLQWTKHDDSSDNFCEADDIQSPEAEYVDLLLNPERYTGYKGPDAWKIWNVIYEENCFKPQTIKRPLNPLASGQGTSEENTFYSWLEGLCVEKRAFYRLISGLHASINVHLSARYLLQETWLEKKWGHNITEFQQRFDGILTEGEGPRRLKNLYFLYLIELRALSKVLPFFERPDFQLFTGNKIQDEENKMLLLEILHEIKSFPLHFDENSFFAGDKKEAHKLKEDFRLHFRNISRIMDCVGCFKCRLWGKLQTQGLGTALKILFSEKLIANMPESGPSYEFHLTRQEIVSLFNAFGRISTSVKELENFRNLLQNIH
UniProt Q96A26: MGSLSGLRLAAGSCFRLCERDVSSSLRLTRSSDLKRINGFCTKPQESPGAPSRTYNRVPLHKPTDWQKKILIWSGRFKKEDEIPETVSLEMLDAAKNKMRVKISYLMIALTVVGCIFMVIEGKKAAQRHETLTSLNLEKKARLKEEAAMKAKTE
UniProt Q06265, whole entry, looked up: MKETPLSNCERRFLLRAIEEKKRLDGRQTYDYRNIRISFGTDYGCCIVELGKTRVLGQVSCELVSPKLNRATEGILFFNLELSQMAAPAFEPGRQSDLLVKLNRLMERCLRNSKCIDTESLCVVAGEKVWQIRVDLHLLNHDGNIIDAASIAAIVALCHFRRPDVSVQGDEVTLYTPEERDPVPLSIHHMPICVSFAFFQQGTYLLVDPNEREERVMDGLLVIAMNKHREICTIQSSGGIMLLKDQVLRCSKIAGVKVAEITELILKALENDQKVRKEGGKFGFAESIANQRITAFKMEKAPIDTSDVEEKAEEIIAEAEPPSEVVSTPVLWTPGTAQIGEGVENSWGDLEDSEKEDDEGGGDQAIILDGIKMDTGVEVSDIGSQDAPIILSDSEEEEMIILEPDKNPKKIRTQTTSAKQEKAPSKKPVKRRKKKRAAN
UniProt Q0VG06: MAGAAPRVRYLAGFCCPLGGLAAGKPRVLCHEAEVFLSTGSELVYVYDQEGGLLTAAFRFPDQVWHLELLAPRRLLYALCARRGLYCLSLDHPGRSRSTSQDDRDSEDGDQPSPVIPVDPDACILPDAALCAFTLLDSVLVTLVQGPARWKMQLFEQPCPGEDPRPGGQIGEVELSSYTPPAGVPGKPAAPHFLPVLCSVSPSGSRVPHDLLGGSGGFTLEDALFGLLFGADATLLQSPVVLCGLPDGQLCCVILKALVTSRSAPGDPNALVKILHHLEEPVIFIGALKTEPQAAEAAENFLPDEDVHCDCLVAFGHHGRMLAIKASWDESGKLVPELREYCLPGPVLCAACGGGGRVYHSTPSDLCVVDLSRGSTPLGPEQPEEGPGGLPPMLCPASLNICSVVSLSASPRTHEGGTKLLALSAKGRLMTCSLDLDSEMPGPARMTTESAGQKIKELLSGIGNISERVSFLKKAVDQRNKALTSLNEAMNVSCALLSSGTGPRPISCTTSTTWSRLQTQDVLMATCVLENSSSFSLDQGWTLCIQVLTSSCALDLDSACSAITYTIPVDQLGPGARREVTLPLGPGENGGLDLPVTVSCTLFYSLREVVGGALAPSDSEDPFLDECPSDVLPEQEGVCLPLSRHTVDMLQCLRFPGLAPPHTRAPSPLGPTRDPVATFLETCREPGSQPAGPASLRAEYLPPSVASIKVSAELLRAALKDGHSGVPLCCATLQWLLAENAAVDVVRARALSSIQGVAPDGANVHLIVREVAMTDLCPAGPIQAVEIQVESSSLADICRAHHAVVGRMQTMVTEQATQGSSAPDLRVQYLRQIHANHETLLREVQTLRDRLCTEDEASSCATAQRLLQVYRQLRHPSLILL
UniProt O60447: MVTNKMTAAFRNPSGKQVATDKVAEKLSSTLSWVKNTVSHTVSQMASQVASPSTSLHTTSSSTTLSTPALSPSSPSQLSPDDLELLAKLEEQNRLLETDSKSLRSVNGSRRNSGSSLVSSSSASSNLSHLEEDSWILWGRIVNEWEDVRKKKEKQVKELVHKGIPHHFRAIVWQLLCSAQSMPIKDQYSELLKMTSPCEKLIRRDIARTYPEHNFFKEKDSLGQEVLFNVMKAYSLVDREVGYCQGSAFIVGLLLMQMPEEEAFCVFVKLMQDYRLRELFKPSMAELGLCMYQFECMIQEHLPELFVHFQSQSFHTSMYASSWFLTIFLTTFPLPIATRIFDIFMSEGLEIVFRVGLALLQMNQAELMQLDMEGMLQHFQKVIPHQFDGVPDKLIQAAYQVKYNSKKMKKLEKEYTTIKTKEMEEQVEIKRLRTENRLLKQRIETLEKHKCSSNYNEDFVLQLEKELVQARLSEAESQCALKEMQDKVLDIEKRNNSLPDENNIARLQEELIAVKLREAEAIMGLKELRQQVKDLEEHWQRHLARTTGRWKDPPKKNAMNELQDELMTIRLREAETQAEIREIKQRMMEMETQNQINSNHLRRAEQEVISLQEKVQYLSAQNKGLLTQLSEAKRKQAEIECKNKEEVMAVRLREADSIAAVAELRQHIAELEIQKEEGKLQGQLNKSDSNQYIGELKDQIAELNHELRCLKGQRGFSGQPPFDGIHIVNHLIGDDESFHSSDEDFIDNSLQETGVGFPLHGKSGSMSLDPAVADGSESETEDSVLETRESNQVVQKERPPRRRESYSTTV

pictilisib = compound: CS(=O)(=O)N1CCN(Cc2cc3nc(-c4cccc5[nH]ncc45)nc(N4CCOCC4)c3s2)CC1 [pictilisib]
Outline: as §1

crizotinib = compound: C[C@@H](Oc1cc(-c2cnn(C3CCNCC3)c2)cnc1N)c1c(Cl)ccc(F)c1Cl [crizotinib]
Outline: as §1

[1] = compound: C[C@H](C1=CC=C(C=C1)C(=O)NC2=C3C=CNC3=NC=C2)N
Outline: as §1

duvelisib = compound: C[C@H](Nc1ncnc2nc[nH]c12)c1cc2cccc(Cl)c2c(=O)n1-c1ccccc1 [duvelisib]
Outline: as §1

gandotinib = compound: Cc1cc(Nc2cc(CN3CCOCC3)c3nc(C)c(Cc4ccc(Cl)cc4F)n3n2)n[nH]1 [gandotinib]
Outline: as §1

tozasertib = compound: Cc1cc(Nc2cc(N3CCN(C)CC3)nc(Sc3ccc(NC(=O)C4CC4)cc3)n2)n[nH]1 [tozasertib]
Outline: as §1

doramapimod = compound: Cc1ccc(-n2nc(C(C)(C)C)cc2NC(=O)Nc2ccc(OCCN3CCOCC3)c3ccccc23)cc1 [doramapimod]
Outline: as §1

bafetinib = compound: Cc1ccc(NC(=O)c2ccc(CN3CC[C@H](N(C)C)C3)c(C(F)(F)F)c2)cc1Nc1nccc(-c2cncnc2)n1 [bafetinib]
Outline: as §1

[2] = compound: Cc1cccc(CC(=O)N2CCc3c2ccc(-c2cn(C)c4ncnc(N)c24)c3F)n1
Outline: as §1

nilotinib = compound: Cc1cn(-c2cc(NC(=O)c3ccc(C)c(Nc4nccc(-c5cccnc5)n4)c3)cc(C(F)(F)F)c2)cn1 [nilotinib]
Outline: as §1

[3] = compound: Cc1nc(Nc2n[nH]c3c2CN(C(=O)N[C@H](CN(C)C)c2ccccc2)C3(C)C)c2sccc2n1
Outline: as §1

dasatinib = compound: Cc1nc(Nc2ncc(C(=O)Nc3c(C)cccc3Cl)s2)cc(N2CCN(CCO)CC2)n1 [dasatinib]
Outline: as §1

[4] = compound: Cc1ncc(-c2ccnc(Nc3ccc(S(C)(=O)=O)cc3)n2)n1C(C)C
Outline: as §1

[5] = compound: Cn1cc(-c2ccc3c(c2)CCN3C(=O)Cc2cccc(C(F)(F)F)c2)c2c(N)ncnc21
Outline: as §1

quisinostat = compound: Cn1cc(CNCC2CCN(c3ncc(C(=O)NO)cn3)CC2)c2ccccc21 [quisinostat]
Outline: as §1

tipifarnib = compound: Cn1cncc1[C@@](N)(c1ccc(Cl)cc1)c1ccc2c(c1)c(-c1cccc(Cl)c1)cc(=O)n2C [tipifarnib]
Outline: as §1

[6] = compound: NC(=O)Nc1cc(-c2cccc(F)c2)sc1C(=O)N[C@H]1CCCNC1
Outline: as §1

[7] = compound: NC(=O)c1cnc(N[C@@H]2CCCC[C@@H]2N)nc1Nc1cccc(-n2nccn2)c1
Outline: as §1

[8] = compound: NC1(c2ccc(-c3nc4ccn5c(=O)[nH]nc5c4cc3-c3ccccc3)cc2)CCC1
Outline: as §1

Measured: log2 fold change

FAM120A isoform 6 (UniProt Q9NZB2)
inactive: lapatinib -0.011 | pictilisib -0.031 | crizotinib -0.041 | [1] 0 | duvelisib 0.007 | gandotinib -0.04 | tozasertib 0 | doramapimod -0.025 | bafetinib 0.01 | [2] 0.014 | nilotinib -0.029 | [3] -0.024 | dasatinib -0.033 | [4] 0.03 | [5] 0 | quisinostat -0.007 | tipifarnib 0.012 | [6] 0.01 | [7] -0.01 | [8] 0.01

FAM3A (UniProt P98173)
inactive: lapatinib -0.047 | pictilisib -0.023 | crizotinib 0.042 | [1] -0.028 | duvelisib -0.019 | gandotinib 0.011 | tozasertib 0.039 | doramapimod 0.039 | bafetinib 0.002 | [2] 0.063 | nilotinib 0.062 | [3] 0.009 | dasatinib 0.042 | [4] -0.028 | [5] 0.013 | quisinostat 0.048 | tipifarnib -0.053 | [6] -0.055 | [7] 0.017 | [8] 0.011

FADS3 (UniProt Q9Y5Q0)
inactive: lapatinib 0.13 | pictilisib -0.014 | crizotinib -0.065 | [1] -0.322 | duvelisib -0.09 | gandotinib 0 | tozasertib 0.079 | doramapimod -0.001 | bafetinib -0.131 | [2] -0.309 | nilotinib -0.091 | [3] 0.216 | dasatinib 0.102 | [4] 0.166 | [5] -0.061 | quisinostat -0.019 | tipifarnib -0.081 | [6] -0.008 | [7] -0.069 | [8] 0.07

EZR (UniProt P15311)
inactive: lapatinib -0.011 | pictilisib -0.011 | crizotinib 0.036 | [1] 0.118 | duvelisib -0.036 | gandotinib -0.03 | tozasertib -0.011 | doramapimod 0.005 | bafetinib 0.006 | [2] -0.084 | nilotinib 0.022 | [3] -0.017 | dasatinib 0.009 | [4] -0.005 | [5] -0.024 | quisinostat 0.055 | tipifarnib 0.022 | [6] -0.012 | [7] -0.01 | [8] 0.016

ETFA (UniProt P13804)
inactive: lapatinib -0.022 | pictilisib 0 | crizotinib -0.006 | [1] -0.023 | duvelisib -0.023 | gandotinib -0.014 | tozasertib 0.001 | doramapimod 0.022 | bafetinib -0.004 | [2] 0.014 | nilotinib -0.014 | [3] -0.011 | dasatinib -0.158 | [4] -0.003 | [5] 0.014 | quisinostat 0.002 | tipifarnib 0.008 | [6] -0.015 | [7] 0.009 | [8] 0.005

FAM210A (UniProt Q96ND0)
inactive: lapatinib -0.017 | pictilisib 0.002 | crizotinib -0.044 | [1] -0.022 | duvelisib -0.021 | gandotinib 0.02 | tozasertib -0.049 | doramapimod -0.003 | bafetinib 0.014 | [2] -0.064 | nilotinib 0.013 | [3] -0.038 | dasatinib 0.024 | [4] -0.013 | [5] 0.007 | quisinostat -0.051 | tipifarnib -0.004 | [6] 0.009 | [7] -0.034 | [8] -0.01

EXOSC4 (UniProt Q9NPD3)
inactive: lapatinib -0.014 | pictilisib -0.018 | crizotinib -0.002 | [1] -0.003 | duvelisib 0.025 | gandotinib 0.073 | tozasertib 0.014 | doramapimod 0.063 | bafetinib -0.036 | [2] 0.017 | nilotinib 0.005 | [3] 0.029 | dasatinib 0.058 | [4] -0.024 | [5] 0.006 | quisinostat -0.031 | tipifarnib 0.025 | [6] 0.043 | [7] -0.026 | [8] -0.057

EXOC2 (UniProt Q96KP1)
inactive: lapatinib -0.016 | pictilisib -0.011 | crizotinib -0.099 | [1] 0.017 | duvelisib -0.032 | gandotinib -0.185 | tozasertib 0.001 | doramapimod 0.042 | bafetinib -0.056 | [2] 0.059 | nilotinib 0.009 | [3] 0.018 | dasatinib -0.041 | [4] -0.009 | [5] 0.022 | quisinostat -0.088 | tipifarnib -0.022 | [6] 0.062 | [7] -0.003 | [8] -0.029

FAM160B1 (UniProt Q5W0V3)
inactive: lapatinib 0.02 | pictilisib -0.06 | crizotinib -0.069 | [1] -0.037 | duvelisib -0.012 | gandotinib 0.075 | tozasertib -0.026 | doramapimod 0.04 | bafetinib -0.013 | [2] 0.017 | nilotinib 0.022 | [3] 0.009 | dasatinib -0.023 | [4] -0.006 | [5] 0.031 | quisinostat -0.096 | tipifarnib 0.006 | [6] 0.001 | [7] -0.003 | [8] -0.034

ERO1A (UniProt Q96HE7)
inactive: lapatinib 0.002 | pictilisib 0.013 | crizotinib -0.002 | [1] 0.043 | duvelisib -0.017 | gandotinib -0.054 | tozasertib 0.016 | doramapimod -0.005 | bafetinib 0.036 | [2] -0.05 | nilotinib 0.008 | [3] -0.012 | dasatinib 0.006 | [4] -0.027 | [5] 0.031 | quisinostat -0.03 | tipifarnib -0.007 | [6] 0.012 | [7] -0.01 | [8] 0.009

FAM162A (UniProt Q96A26)
inactive: lapatinib 0.014 | pictilisib -0.043 | crizotinib 0.05 | [1] 0.031 | duvelisib -0.012 | gandotinib 0.007 | tozasertib -0.049 | doramapimod -0.026 | bafetinib 0.097 | [2] -0.053 | nilotinib 0.062 | [3] 0.001 | dasatinib 0.056 | [4] -0.03 | [5] -0.003 | quisinostat 0.082 | tipifarnib 0.087 | [6] -0.027 | [7] -0.039 | [8] 0.032

EXOSC9 (UniProt Q06265)
inactive: lapatinib -0.01 | pictilisib 0.029 | crizotinib 0.009 | [1] 0.039 | duvelisib 0.023 | gandotinib 0.007 | tozasertib -0.007 | doramapimod -0.007 | bafetinib -0.002 | [2] -0.016 | nilotinib -0.002 | [3] 0.015 | dasatinib -0.026 | [4] 0.035 | [5] 0.005 | quisinostat 0 | tipifarnib -0.013 | [6] -0.023 | [7] -0.008 | [8] -0.018

EXT2 isoform 3 (UniProt Q93063)
inactive: lapatinib -0.048 | pictilisib -0.194 | crizotinib -0.046 | [1] 0.002 | duvelisib 0.057 | gandotinib -0.037 | tozasertib 0.037 | doramapimod -0.014 | bafetinib -0.025 | [2] 0.07 | nilotinib 0.085 | [3] 0.101 | dasatinib 0.091 | [4] 0.007 | [5] 0.111 | quisinostat 0.003 | tipifarnib -0.048 | [6] 0.012 | [7] -0.165 | [8] -0.028

FAAP100 (UniProt Q0VG06)
inactive: lapatinib -0.114 | pictilisib -0.078 | crizotinib -0.023 | [1] 0.023 | duvelisib 0.024 | gandotinib 0.012 | tozasertib -0.036 | doramapimod 0.018 | bafetinib -0.005 | [2] 0.023 | nilotinib -0.013 | [3] 0.033 | dasatinib 0.057 | [4] -0.037 | [5] -0.025 | quisinostat -0.041 | tipifarnib 0.071 | [6] -0.021 | [7] -0.03 | [8] -0.025

EVI5 isoform 2 (UniProt O60447)
inactive: lapatinib -0.07 | pictilisib -0.051 | crizotinib -0.158 | [1] -0.025 | duvelisib -0.085 | gandotinib -0.109 | tozasertib -0.024 | doramapimod 0.28 | bafetinib 0.083 | [2] 0.124 | nilotinib -0.005 | [3] -0.071 | dasatinib -0.143 | [4] 0.109 | [5] 0.109 | quisinostat -0.068 | tipifarnib 0.012 | [6] 0.083 | [7] 0.07 | [8] 0.052

Source: the supplement of paper PMC10849652
